In the assay the target is T1, Parkin (mouse (endogenous in SN4741)) (UniProt Q9WVS6).
T1 sequence: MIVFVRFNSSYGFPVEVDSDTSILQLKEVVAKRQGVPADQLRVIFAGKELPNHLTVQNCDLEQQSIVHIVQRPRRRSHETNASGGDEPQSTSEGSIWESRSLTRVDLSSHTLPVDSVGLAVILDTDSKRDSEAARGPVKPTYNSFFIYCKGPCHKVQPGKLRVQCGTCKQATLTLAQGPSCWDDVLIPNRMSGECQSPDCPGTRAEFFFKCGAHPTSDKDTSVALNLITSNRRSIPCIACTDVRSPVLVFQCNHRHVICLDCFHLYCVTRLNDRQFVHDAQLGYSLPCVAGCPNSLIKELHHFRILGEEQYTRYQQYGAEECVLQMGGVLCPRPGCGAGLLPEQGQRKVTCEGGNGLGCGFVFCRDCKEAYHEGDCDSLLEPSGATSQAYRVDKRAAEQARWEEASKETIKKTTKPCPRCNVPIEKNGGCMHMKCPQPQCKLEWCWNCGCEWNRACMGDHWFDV
Briefly: co-IP; SN4741 cell lysates (empty vector or α-synuclein A53T, DMSO or SB203580); IP with anti-Parkin or anti-p38, respectively, immunoblot with the indicated antibodies; IgG control; lysis in 20 mM Tris-HCl pH 7.4, 150 mM NaCl, 1% Triton X-100; beads washed with RIPA.

Results are given in words; binding and its absence hold for the method and conditions named. In cells and extracts the contact can be indirect. Binding calls can cover weak binding; strength is not graded here.

Turning to “p38-mitogen-activated protein kinase (mouse (endogenous in SN4741)) (enzyme)”, the binding entry is listed as “binds”.

These data come from publication PMC5999948.
